# According to the supplement of paper PMC12067093, “Discovery and optimisation of a covalent ligand for TRIM25 and its application to targeted protein ubiquitination” (Chemical Science, 2025):
# The other results are listed elsewhere or left out.
# Compound: CC1Cc2ccccc2N1C(=O)C1CCCN(C1)C(=O)CCl (mixture of isomers) [TRIM25 ligand 11 (diastereomer mixture)]
# Experiment: probe-labelled cysteine peptide fold change vs DMSO (competition) (log2 fold change); higher = less target engagement (more negative = stronger competition)
# Conditions: THP-1, incubation time: 4 h
# 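Also: competitive chemoproteomic profiling in live THP-1 cells with an iodoacetamide desthiobiotin (IA-DTB) probe, comparing probe-labelled peptide intensities in compound-treated cells against DMSO-treated controls.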
Target,probe-labelled cysteine peptide fold change (10 µM),probe-labelled cysteine peptide fold change (50 µM)
RARS_P54136_638_MLLCEAVAAVMAK (UniProt P54136),-0.0816,0.17
RASSF2_P50749_90_IRPPPSSSSWHSGCNLGAQGTTLKPLTVPK (UniProt P50749),0.0411,-0.437
RASA3_Q14644_328_SADVEPVSASAAHILGEVCR (UniProt Q14644),0.125,-0.0382
RB1_P06400_438_AVGQGCVEIGSQR (UniProt P06400),-0.0475,0.117
RARS2_Q5T160_489_LHSLEETFGCGYLNDFNTACLQEPQSVSILQHLLR (UniProt Q5T160),0.382,0.0781
RASSF4_Q9H2L5_145_SDASCMSQR (UniProt Q9H2L5),-0.0458,0.0314
RBMS1_P29558_194_CEAVIGHFNGK (UniProt P29558),-0.0517,0.123
RCC2_Q9P258_305_IEYDCELVPR (UniProt Q9P258),0.0696,0.115
RAP1GAP2_Q684P5_185_CEEAEGIEYLR (UniProt Q684P5),0.119,0.145
RCC1L_Q96I51_401_CGLSHFAALTNK (UniProt Q96I51),0.0578,0.0297
RAN_P62826_112_VCENIPIVLCGNK (UniProt P62826),-0.00181,0.089
RAPGEF1_Q13905_1024_CFQQAHYDMR (UniProt Q13905),-0.168,-0.0846
RAI1_Q7Z5J4_828_EEAGGLLQCPEVAK (UniProt Q7Z5J4),-0.0134,-0.248
RARS_P54136_115_FGDYQCNSAMGISQMLK (UniProt P54136),-0.133,-0.235

# Complete entries, quoted from the list:
# RASSF4_Q9H2L5_145_SDASCMSQR (UniProt Q9H2L5) reads probe-labelled cysteine peptide fold change (10 µM) = -0.0458; probe-labelled cysteine peptide fold change (50 µM) = 0.0314
# RCC1L_Q96I51_401_CGLSHFAALTNK (UniProt Q96I51) reads probe-labelled cysteine peptide fold change (10 µM) = 0.0578; probe-labelled cysteine peptide fold change (50 µM) = 0.0297
